In PubChem BioAssay AID1487 (National Center for Advancing Translational Sciences (NCATS), 2009):
Some of the results follow. Further columns of the screen follow, without active or inactive calls. Most of these compounds were active or inconclusive in the main read-out, so they are no random draw. Words in brackets tell the shape of the fitted curve; partial curves, single points and poor fits give uncertain potencies.

Assay: qHTS Assay for Modulators of Lamin A Splicing
Details: HeLa LMNA splicing GFP/RFP minigene ratio, 48 h
Method in brief: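 S3 HeLa stable clones carrying a lamin A-EGFP splicing minigene plus DsRed2 were seeded at 600 cells/well in Opti-MEM with 2% FBS, pin-dosed and incubated 48 h at 37°C. Acumen cytometry (488 nm) gave the GFP/RFP total-intensity ratio.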

[1] = measured here: RFP viability control channel
[2] = measured here: GFP splicing reporter channel

SMILES	AC50 [1]	AC50 [2]
Cc1cc2nc(-c3ccc(SCC(=O)N4CCN(C(=O)c5ccco5)CC4)nc3)[nH]c2cc1C	22.4 µM [rising, single point]	
CCCCN(C)CCNC(=O)c1c2c(nc3ccccc13)C(=O)N(C1CCCCC1)C2		11.2 µM [falling, partial curve, poor fit]
COc1ccc(C2CC(c3cccs3)=NN2c2ccc(C=O)cc2)cc1 (stereo not drawn)	12.6 µM [rising, single point]	11.2 µM [rising, single point]
Cc1c(C(=O)NCC(c2ccc(Cl)cc2)N2CCOCC2)oc2ccccc12 (stereo not drawn)	0.0562 µM [falling, full curve]	0.158 µM [falling, partial curve]
Cc1cccc(C)c1NC(=O)N1C2CCC1CC(O)(c1cccnc1)C2 (stereo not drawn)		35.5 µM [falling, single point]
CC(C)(C)OC(=O)N1CCC(c2c(C(=O)NCCN3CCc4ccccc4C3)cnn2-c2ccc(F)cc2F)CC1		31.6 µM [falling, partial curve]
COc1cc(C)ccc1OCCOCCOc1ccc([N+](=O)[O-])cc1	14.1 µM [rising, partial curve]	11.2 µM [rising, partial curve]
Cc1noc(C)c1COC(=O)Cc1ccc(Cl)cc1		11.2 µM [rising, partial curve]
CCC(=O)N1CCc2cc(Br)cc(S(=O)(=O)CCC(=O)NCCc3cccc(C)c3)c21		6.31 µM [rising, single point]
Cc1cccc(OCC(=O)NNC(=O)C2CCCCC2C(=O)O)c1 (stereo not drawn)	0.0398 µM [falling, full curve, poor fit]	0.794 µM [falling, full curve, poor fit]
CN1CCCN(S(=O)(=O)c2ccc(Cl)c(Cl)c2)CC1		0.316 µM [falling, full curve, poor fit]
Nc1nc(/C=C/c2ccc(F)cc2)nc(-c2ccccc2O)n1	1.26 µM [rising, full curve]	2.51 µM [rising, partial curve]
C/C(=N\Nc1ccc(S(=O)(=O)Nc2ccc(Cl)cc2)cc1[N+](=O)[O-])c1ccc(N2CCOCC2)cc1	6.31 µM [rising, single point]	4.47 µM [rising, single point]
C=CCN1C(=O)S/C(=C/c2ccc(Sc3nc4ccccc4[nH]3)o2)C1=O	3.16 µM [rising, full curve]	
COC(=O)CC1=NN(c2nc(C)cc(C)n2)C(=O)C1	7.08 µM [falling, partial curve, poor fit]	
Cc1cc(NC(=O)CO/N=C/c2ccc3c(c2)OCO3)ccc1Br		0.447 µM [rising, full curve, poor fit]
CCOC(=O)N1CCN(c2c(NCCCN(CC)Cc3ccccc3)c(=O)c2=O)CC1	0.0891 µM [rising, partial curve, poor fit]	
Cc1cc(=O)[nH]c(SCC(=O)N(CCC#N)c2ccccc2)c1C#N		0.0224 µM [falling, full curve, poor fit]

SMILES	AC50 [1]	AC50 [2]
Cc1ccc(CNc2cnn(C34CC5CC(CC(C5)C3)C4)c(=O)c2Cl)cc1	1.26 µM [rising, partial curve]	
O=C(c1ccc2c(c1)N(Cc1cccc(F)c1)C(=O)c1ccccc1S2)N1CCOCC1	0.0251 µM [falling, full curve, poor fit]	
CCN(c1ccccc1)S(=O)(=O)c1ccc(OC)c(NC(=O)CNCC(C)O)c1 (stereo not drawn)		0.501 µM [falling, full curve, poor fit]
CC1=NNC(=O)/C1=C\c1cn(-c2ccccc2)nc1-c1ccc(F)cc1	7.08 µM [falling, full curve]	5.62 µM [falling, full curve]
CN(C)c1ccc(C(=O)c2ccc(N(C)C)c3ccccc23)cc1	0.1 µM [rising, full curve, poor fit]	
O=C(Cc1ccccc1)NCC1OCCc2ccccc21 (stereo not drawn)		0.891 µM [falling, full curve, poor fit]
CCN(CC)S(=O)(=O)N1CCC(C(=O)NC2CCCc3ccccc32)CC1 (stereo not drawn)	35.5 µM [rising, single point]	
CCCCc1ccc(NC(=S)Nc2ccc(Nc3ccc(OC)cc3)cc2)cc1	15.8 µM [rising, single point]	
Cc1ccccc1CN1C(=O)c2ccccc2S(=O)c2ccc(C(=O)NC3CCC(C)CC3)cc21 (stereo not drawn)	0.01 µM [falling, full curve, poor fit]	0.00891 µM [falling, full curve, poor fit]
N#C/C(=C/c1ccc(-c2ccc(S(N)(=O)=O)cc2)o1)c1nc2ccccc2s1	14.1 µM [falling, partial curve]	11.2 µM [falling, partial curve]
Cc1ccc(Nc2nc(N)c([N+](=O)[O-])c(N3CCCC(C)C3)n2)cc1C (stereo not drawn)	35.5 µM [falling, single point]	35.5 µM [falling, single point]
Cc1ccc(-c2nc(CSc3nc4ccccc4c(=O)n3C)cs2)cc1	10 µM [rising, single point]	3.55 µM [rising, single point]
N#C/C(=C\C=C\c1ccccc1)C(=O)Nc1ccccc1	11.2 µM [rising, partial curve]	6.31 µM [rising, partial curve, poor fit]
CC(C)c1nnc(SCC(=O)N2CCN(C(=O)c3ccco3)CC2)n1N		0.00447 µM [falling, full curve, poor fit]
O=[N+]([O-])c1cccc(N/N=C/c2cccc3ccccc23)c1	35.5 µM [rising, single point]	
CC(=O)Nc1c([N+](=O)[O-])cc(C)c(Cl)c1[N+](=O)[O-]		0.282 µM [falling, partial curve]
CC1CCN(S(=O)(=O)c2ccc(Cl)cc2)CC1	35.5 µM [rising, single point]	22.4 µM [rising, single point]
